This passage reports binding results from PMC6113625.

For assay [1], the target named is recombinant adenylate cyclase domain peptide of B. pertussis CyaA (B. pertussis ACD), nonphosphorylated (Bordetella pertussis Tohama I) (UniProt P0DKX7). The experiment in a line: co-IP; reaction solutions of ACD (1 nM), with or without PKA phosphorylation, preincubated with 48 µg of the FLAG-14-3-3γ-containing E. coli fraction; immunoprecipitated with an anti-ACD antibody, immunoblotted with an anti-14-3-3 antibody and anti-CyaA antibody (3D1); only the target purified.

The target in assay [2] is B. pertussis ACD phosphorylated by protein kinase A in vitro (Bordetella pertussis Tohama I) (UniProt P0DKX7). The description is as above.

These are yes or no findings as the source states them, for the method shown. In cells and extracts the contact can be indirect. Sequences can lack the tags named with a protein.

B1: FLAG-14-3-3γ expressed in E. coli (protein, UniProt P61981 1-247)
chain: MVDREQLVQKARLAEQAERYDDMAAAMKNVTELNEPLSNEERNLLSVAYKNVVGARRSSWRVISSIEQKTSADGNEKKIEMVRAYREKIEKELEAVCQDVLSLLDNYLIKNCSETQYESKVFYLKMKGDYYRYLAEVATGEKRATVVESSEKAYSEAHEISKEHMQPTHPIRLGLALNYSVFYYEIQNAPEQACHLAKTAFDDAIAELDTLNEDSYKDSTLIMQLLRDNLTLWTSDQQDDDGGEGNN
As for B1, the binding entry in assay [1] and in assay [2] was “no binding” each time.
